{"sequences": {"note": "By UniProt entry, the sequences of proteins in these tests, tags left out.", "UniProt O15205": "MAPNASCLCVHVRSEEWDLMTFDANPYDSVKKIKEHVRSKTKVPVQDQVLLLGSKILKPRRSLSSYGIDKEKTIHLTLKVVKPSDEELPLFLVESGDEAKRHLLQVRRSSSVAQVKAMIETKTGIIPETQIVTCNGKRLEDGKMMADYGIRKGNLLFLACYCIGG", "UniProt Q9Z0N7": "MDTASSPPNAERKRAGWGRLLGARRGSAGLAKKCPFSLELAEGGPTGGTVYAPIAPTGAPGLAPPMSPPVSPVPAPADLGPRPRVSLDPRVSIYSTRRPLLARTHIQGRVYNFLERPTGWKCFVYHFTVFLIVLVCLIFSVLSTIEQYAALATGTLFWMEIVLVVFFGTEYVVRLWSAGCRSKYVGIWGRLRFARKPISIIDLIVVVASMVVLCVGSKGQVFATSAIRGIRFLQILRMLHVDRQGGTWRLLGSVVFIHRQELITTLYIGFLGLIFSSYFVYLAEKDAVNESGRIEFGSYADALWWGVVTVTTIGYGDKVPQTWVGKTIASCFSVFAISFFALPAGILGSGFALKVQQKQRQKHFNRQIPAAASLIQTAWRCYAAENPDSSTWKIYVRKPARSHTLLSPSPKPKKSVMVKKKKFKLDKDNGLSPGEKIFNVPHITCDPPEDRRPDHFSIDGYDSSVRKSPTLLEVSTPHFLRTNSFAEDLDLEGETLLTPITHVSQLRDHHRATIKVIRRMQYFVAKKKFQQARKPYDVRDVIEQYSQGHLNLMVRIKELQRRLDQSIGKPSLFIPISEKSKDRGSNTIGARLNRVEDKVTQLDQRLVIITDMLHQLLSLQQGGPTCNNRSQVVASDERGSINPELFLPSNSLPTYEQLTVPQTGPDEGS"}, "source": "paper PMC10150200", "key": {"[1]": {"biological_target": "Flag-FAT10 expressed in HEK293 cells (UniProt O15205)", "experiment": "co-IP; HEK293 cells expressing Flag-FAT10 or Flag-ΔFAT10 and His-KCNQ1; RIPA lysate, Protein A/G magnetic beads, western blot"}, "[2]": {"biological_target": "Flag-FAT10 expressed in HEK293 cells (UniProt O15205)", "experiment": "co-IP; Fat10-/- HEK293 cells, with Flag-Fat10 plasmid, Si-Ub or Si-con, or IFN-γ/TNF-α; Ub-Kv7.1 and FAT10-Kv7.1 complexes detected"}, "[3]": {"biological_target": "FAT10, endogenous in Fat10+/+ HEK293 cells, induced by IFN-γ/TNF-α (human (endogenous in HEK293)) (UniProt O15205)", "experiment": "co-IP; Fat10+/+ HEK293 cells, with or without IFN-γ/TNF-α for the indicated times, Si-Ub or Si-scramble; Ub-Kv7.1 and FAT10-Kv7.1 complexes detected"}, "[4]": {"biological_target": "Flag-FAT10 expressed in H9C2 cells (UniProt O15205)", "experiment": "co-IP; H9C2 cells transfected with increasing amounts of Flag-Fat10 plasmid; immunoprecipitation with anti-Ub and anti-FAT10 beads, Kv7.1 detected by western blot"}, "[5]": {"biological_target": "T1, Human leukocyte antigen F-associated transcript 10 (FAT10), endogenous in neonatal rat cardiomyocytes (rat (endogenous in NRCMs)) (UniProt Q921A3)", "T1 sequence": "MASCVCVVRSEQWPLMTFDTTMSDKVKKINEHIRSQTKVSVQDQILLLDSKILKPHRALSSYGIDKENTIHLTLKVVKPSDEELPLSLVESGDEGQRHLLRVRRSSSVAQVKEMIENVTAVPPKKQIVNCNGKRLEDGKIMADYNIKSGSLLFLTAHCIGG", "experiment": "co-IP; endogenous proteins; total proteins extracted with RIPA buffer, 500 ug lysate with antibody 1-2 h at room temperature, Protein A/G magnetic beads at 4°C overnight, western blot"}}, "note": "These are yes or no findings as the source states them, for the method shown. In cells and extracts the contact can be indirect. Some results given as binding are weak or reduced against the parent protein; the word gives no strength.", "data": [{"substance": "His-KCNQ1 (Kv7.1) expressed in HEK293 cells (from UniProt P51787 1-676)", "values": [{"measurement": "binding", "setting": "[1]", "result": "binds"}]}, {"substance": "Kv7.1 in Fat10+/+ and Fat10-/- HEK293 cells (from UniProt P51787 1-676)", "values": [{"measurement": "binding", "setting": "[2]", "result": "binds"}, {"measurement": "binding", "setting": "[3]", "result": "binds"}]}, {"substance": "Kv7.1 in H9C2 cells (from UniProt Q9Z0N7 1-669)", "values": [{"measurement": "binding", "setting": "[4]", "result": "binds"}]}, {"substance": "Kv7.1, the alpha-subunit of IKs, endogenous in neonatal rat cardiomyocytes (from UniProt Q9Z0N7 1-669)", "values": [{"measurement": "binding", "setting": "[5]", "result": "binds"}]}]}
